Source: publication PMC4564187, “Pharmacokinetic and Pharmacodynamic Characterisation of an Anti-Mouse TNF Receptor 1 Domain Antibody Formatted for In Vivo Half-Life Extension” (PLoS ONE, 2015)
No constants are given. Whether binding was seen depends on the method and setting.

Target: DMS5540
Experiment: SEC; analytical SEC, TSK G2000 SWXL, 0.5 ml/min, sodium phosphate pH6.8 based mobile phase with 5% organic solvent; 10 μl of 0.6 mg/ml DMS5540; both purified

B1: DMS5540 (bispecific antibody)
chain: EVQLLESGGGLVQPGGSLRLSCAASGFTFNRYSMGWLRQAPGKGLEWVSRIDSYGRGTYYEDPVKGRFSISRDNSKNTLYLQMNSLRAEDTAVYYCAKISQFGSNAFDYWGQGTQVTVSSASTDIQMTQSPSSLSASVGDRVTITCRASRPIGTMLSWYQQKPGKAPKLLILFGSRLQSGVPSRFSGSGSGTDFTLTISSLQPEDFATYYCAQAGTHPTTFGQGTKVEIKR
notes: anti-mouse TNFR1 VH dAb DOM1m-21-23; three residue linker (Ala-Ser-Thr); About 25 kDa; two human single variable domains on one chain; also called mouse TNFR1 antagonist; genetic fusion of DOM1m-21-23 with the AlbudAb DOM7h-11-12; source: E. coli BL21(DE3) strain derivatives, purified from culture supernatant (Protein-A, cation exchange, SEC when necessary)
- binding: no binding (tested: 0.6mg/ml)
